{"source": "PubChem BioAssay AID1259308 – NCATS – 2017", "purpose": "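Candidate targets for better recombinant protein yield in mammalian cells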 (primary screen)", "cells": "human HEK293 embryonic kidney cells stably expressing firefly luciferase (HEK-CMV-Luc2-Hygro)", "reagent": "single siRNA against human genes, 0.8 pmol siRNA per well", "duration": "72 h", "detection": "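Luciferase light (ONE-Glo) measured on one replicate plate set and viability (CellTiter-Glo) on the other, scaled to a negative control siRNA, with robust z-scores and luciferase per cell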", "reading the numbers": "total luciferase, z-score: higher = more reporter protein produced", "active means": "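An siRNA counts as active if its total luciferase robust z-score exceeds 3; genes with two or more such siRNAs out of three were retested with fresh siRNAs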", "calls": "active = raised luciferase; inactive = no rise", "note": "Shown is an unselected part of about 59,000 deposited reagents. About 1,510 of them (2.6%) count as active. 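Calls use total luciferase alone and ignore viability, so some active siRNAs may act by altering cell number.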 The numbers tell different reagents against one gene apart. Further read-outs or replicates are left out here."}
{"gene symbol": "XDH", "siRNA no.": 1, "total luciferase, z-score": -2.09, "Outcome": "inactive"}
{"gene symbol": "XDH", "siRNA no.": 2, "total luciferase, z-score": -0.424, "Outcome": "inactive"}
{"gene symbol": "XDH", "siRNA no.": 3, "total luciferase, z-score": -0.101, "Outcome": "inactive"}
{"gene symbol": "KDM2A", "siRNA no.": 1, "total luciferase, z-score": -0.543, "Outcome": "inactive"}
{"gene symbol": "KDM2A", "siRNA no.": 2, "total luciferase, z-score": -0.583, "Outcome": "inactive"}
{"gene symbol": "KDM2A", "siRNA no.": 3, "total luciferase, z-score": -0.225, "Outcome": "inactive"}
{"gene symbol": "KCNE4", "siRNA no.": 1, "total luciferase, z-score": 1.25, "Outcome": "inactive"}
{"gene symbol": "KCNE4", "siRNA no.": 2, "total luciferase, z-score": 1.33, "Outcome": "inactive"}
{"gene symbol": "KCNE4", "siRNA no.": 3, "total luciferase, z-score": 1.71, "Outcome": "inactive"}
{"gene symbol": "HSF2", "siRNA no.": 1, "total luciferase, z-score": -0.108, "Outcome": "inactive"}
{"gene symbol": "HSF2", "siRNA no.": 2, "total luciferase, z-score": -1.08, "Outcome": "inactive"}
{"gene symbol": "HSF2", "siRNA no.": 3, "total luciferase, z-score": 0.266, "Outcome": "inactive"}
{"gene symbol": "PFDN2", "siRNA no.": 1, "total luciferase, z-score": -2.02, "Outcome": "inactive"}
{"gene symbol": "PFDN2", "siRNA no.": 2, "total luciferase, z-score": 3.12, "Outcome": "active"}
{"gene symbol": "PFDN2", "siRNA no.": 3, "total luciferase, z-score": -1.57, "Outcome": "inactive"}
{"gene symbol": "DMTF1", "siRNA no.": 1, "total luciferase, z-score": 3.32, "Outcome": "active"}
{"gene symbol": "DMTF1", "siRNA no.": 2, "total luciferase, z-score": -0.706, "Outcome": "inactive"}
{"gene symbol": "DMTF1", "siRNA no.": 3, "total luciferase, z-score": 2.27, "Outcome": "inactive"}

2 consecutive records already listed:
{"gene symbol": "KCNE4", "siRNA no.": 1, "total luciferase, z-score": 1.25, "Outcome": "inactive"}
{"gene symbol": "KCNE4", "siRNA no.": 2, "total luciferase, z-score": 1.33, "Outcome": "inactive"}

Next entries follow.
{"gene symbol": "SORBS2", "siRNA no.": 1, "total luciferase, z-score": -0.462, "Outcome": "inactive"}
{"gene symbol": "SORBS2", "siRNA no.": 2, "total luciferase, z-score": 0.953, "Outcome": "inactive"}
{"gene symbol": "SORBS2", "siRNA no.": 3, "total luciferase, z-score": -2.29, "Outcome": "inactive"}
{"gene symbol": "OR2T4", "siRNA no.": 1, "total luciferase, z-score": -0.838, "Outcome": "inactive"}
{"gene symbol": "OR2T4", "siRNA no.": 2, "total luciferase, z-score": 0.31, "Outcome": "inactive"}
{"gene symbol": "OR2T4", "siRNA no.": 3, "total luciferase, z-score": 1.37, "Outcome": "inactive"}
{"gene symbol": "SMNDC1", "siRNA no.": 1, "total luciferase, z-score": -1.28, "Outcome": "inactive"}
{"gene symbol": "SMNDC1", "siRNA no.": 2, "total luciferase, z-score": 2.1, "Outcome": "inactive"}
{"gene symbol": "SMNDC1", "siRNA no.": 3, "total luciferase, z-score": 2.12, "Outcome": "inactive"}
{"gene symbol": "LOC100505502", "siRNA no.": 1, "total luciferase, z-score": 1.22, "Outcome": "inactive"}
{"gene symbol": "LOC100505502", "siRNA no.": 2, "total luciferase, z-score": -1.01, "Outcome": "inactive"}
{"gene symbol": "LOC100505502", "siRNA no.": 3, "total luciferase, z-score": -0.422, "Outcome": "inactive"}
{"gene symbol": "PGBDF", "siRNA no.": 1, "total luciferase, z-score": 2.6, "Outcome": "inactive"}
{"gene symbol": "PGBDF", "siRNA no.": 2, "total luciferase, z-score": 1.84, "Outcome": "inactive"}
{"gene symbol": "PGBDF", "siRNA no.": 3, "total luciferase, z-score": 0.588, "Outcome": "inactive"}
